The list does not hold the whole screen: it covers a few groups of compounds. Not every dose and run of a compound is shown. T/C: endpoint of the treated group in % of that of the vehicle group. For survival time, this PubChem deposit counts one and a half times the control or more as active, and values a quarter to a half above the control carry no call in these data; other NCI protocols may use other cut-offs. Schedule codes are those of the source, read here as Q, the interval in days (D) or hours (H), X, the number of doses. Some T/C values are marked as having no survivor count here; that says nothing about deaths at the dose.
System: P388 leukemia ip, CD2F1 mice, survival T/C
Experiment: NCI In Vivo Anticancer Drug Screen. Data for tumor model P388 Leukemia (intraperitoneal) in CD2F1 (CDF1) mice
Conditions: T/C endpoint: median survival time, schedule: Q01DX009 (ip), higher T/C = longer survival

How did the T/C (dose: 0.2 mg/kg/injection, vehicle: other) turn out when `CC1=CC2OC3C(OC4CCCCO4)C(O)C(C)(C2(CO)CC1)C31CO1` (configuration not stated) was run?
The T/C was 103 % of control [survivor count not shown].

What about the T/C (dose: 0.4 mg/kg/injection, vehicle: other) of the same molecule?
The T/C was 100 % of control [survivor count not shown].

And the T/C (dose: 0.8 mg/kg/injection, vehicle: other)?
The T/C was 107 % of control [survivor count not shown].

And the T/C (dose: 1.6 mg/kg/injection, vehicle: other)?
The T/C was 108 % of control [survivor count not shown].

What about the T/C (dose: 3.2 mg/kg/injection, vehicle: other) of the same molecule?
The T/C was 98 % of control [survivor count not shown].

And the T/C (dose: 6.4 mg/kg/injection, vehicle: other)?
The T/C was 107 % of control [survivor count not shown].

For `CC(=O)OC1C(=O)OCC23CCC4(C)OC4C2OC2CC(OC(=O)/C=C/C=C/C(=O)OCCC1C)C3(C)C21CO1` (configuration not stated), which T/C (dose: 1.25 mg/kg/injection, vehicle: saline with Tween-80) is on record?
Its T/C is 149 % of control [survivor count not shown].

What about the T/C (dose: 2.5 mg/kg/injection, vehicle: saline with Tween-80) of the same molecule?
The T/C was 142 % of control [survivor count not shown].

And the T/C (dose: 5.0 mg/kg/injection, vehicle: saline with Tween-80)?
The T/C was 166 % of control [survivor count not shown].

And the T/C (dose: 10.0 mg/kg/injection, vehicle: saline with Tween-80)?
Its T/C is 166 % of control [survivor count not shown].

How did the T/C (dose: 0.25 mg/kg/injection, vehicle: saline + alcohol) turn out when `CC1CCOC(=O)/C=C/C=C/C(=O)OC2CC3OC4C=C(CO)CCC4(COC(=O)C1O)C2(C)C31CO1` (configuration not stated) was run?
Its T/C is 158 % of control [survivor count not shown].

What about the T/C (dose: 0.5 mg/kg/injection, vehicle: saline + alcohol) of the same molecule?
Its T/C is 154 % of control [survivor count not shown].

And the T/C (dose: 1.0 mg/kg/injection, vehicle: saline + alcohol, evaluated on day 30)?
The T/C was 165 % of control [survivor count not shown].

And the T/C (dose: 1.0 mg/kg/injection, vehicle: saline + alcohol, evaluated on day 35)?
Its T/C is 190 % of control [survivor count not shown].

And the T/C (dose: 2.0 mg/kg/injection, vehicle: saline + alcohol, evaluated on day 30)?
The T/C was 165 % of control [survivor count not shown].

And the T/C (dose: 2.0 mg/kg/injection, vehicle: saline + alcohol, evaluated on day 35)?
The T/C was 169 % of control [survivor count not shown].

And the T/C (dose: 4.0 mg/kg/injection, vehicle: saline + alcohol)?
The T/C was 252 % of control [survivor count not shown].

What does the source list for `CC1=C[C@H]2O[C@@H]3C[C@H]4OC(=O)/C=C\C=C\C5OC(C/C(C)=C\C(=O)OCC2(CC1)[C@]4(C)[C@]31CO1)OC5C` (some centres not stated)?
T/C (dose: 0.78 mg/kg/injection, vehicle: saline with Tween-80): 112 % of control [survivor count not shown]; T/C (dose: 1.56 mg/kg/injection, vehicle: saline with Tween-80): 109 % of control [survivor count not shown]; T/C (dose: 3.13 mg/kg/injection, vehicle: saline with Tween-80): 115 % of control [survivor count not shown]; T/C (dose: 6.25 mg/kg/injection, vehicle: saline with Tween-80): 122 % of control [survivor count not shown]; T/C (dose: 12.5 mg/kg/injection, vehicle: saline with Tween-80): 131 % of control [survivor count not shown]

— PubChem BioAssay AID330 (DTP/NCI, 2004)
